{"sequences": {"note": "By UniProt entry, the sequences of proteins in these tests, tags left out.", "UniProt Q6KC79": "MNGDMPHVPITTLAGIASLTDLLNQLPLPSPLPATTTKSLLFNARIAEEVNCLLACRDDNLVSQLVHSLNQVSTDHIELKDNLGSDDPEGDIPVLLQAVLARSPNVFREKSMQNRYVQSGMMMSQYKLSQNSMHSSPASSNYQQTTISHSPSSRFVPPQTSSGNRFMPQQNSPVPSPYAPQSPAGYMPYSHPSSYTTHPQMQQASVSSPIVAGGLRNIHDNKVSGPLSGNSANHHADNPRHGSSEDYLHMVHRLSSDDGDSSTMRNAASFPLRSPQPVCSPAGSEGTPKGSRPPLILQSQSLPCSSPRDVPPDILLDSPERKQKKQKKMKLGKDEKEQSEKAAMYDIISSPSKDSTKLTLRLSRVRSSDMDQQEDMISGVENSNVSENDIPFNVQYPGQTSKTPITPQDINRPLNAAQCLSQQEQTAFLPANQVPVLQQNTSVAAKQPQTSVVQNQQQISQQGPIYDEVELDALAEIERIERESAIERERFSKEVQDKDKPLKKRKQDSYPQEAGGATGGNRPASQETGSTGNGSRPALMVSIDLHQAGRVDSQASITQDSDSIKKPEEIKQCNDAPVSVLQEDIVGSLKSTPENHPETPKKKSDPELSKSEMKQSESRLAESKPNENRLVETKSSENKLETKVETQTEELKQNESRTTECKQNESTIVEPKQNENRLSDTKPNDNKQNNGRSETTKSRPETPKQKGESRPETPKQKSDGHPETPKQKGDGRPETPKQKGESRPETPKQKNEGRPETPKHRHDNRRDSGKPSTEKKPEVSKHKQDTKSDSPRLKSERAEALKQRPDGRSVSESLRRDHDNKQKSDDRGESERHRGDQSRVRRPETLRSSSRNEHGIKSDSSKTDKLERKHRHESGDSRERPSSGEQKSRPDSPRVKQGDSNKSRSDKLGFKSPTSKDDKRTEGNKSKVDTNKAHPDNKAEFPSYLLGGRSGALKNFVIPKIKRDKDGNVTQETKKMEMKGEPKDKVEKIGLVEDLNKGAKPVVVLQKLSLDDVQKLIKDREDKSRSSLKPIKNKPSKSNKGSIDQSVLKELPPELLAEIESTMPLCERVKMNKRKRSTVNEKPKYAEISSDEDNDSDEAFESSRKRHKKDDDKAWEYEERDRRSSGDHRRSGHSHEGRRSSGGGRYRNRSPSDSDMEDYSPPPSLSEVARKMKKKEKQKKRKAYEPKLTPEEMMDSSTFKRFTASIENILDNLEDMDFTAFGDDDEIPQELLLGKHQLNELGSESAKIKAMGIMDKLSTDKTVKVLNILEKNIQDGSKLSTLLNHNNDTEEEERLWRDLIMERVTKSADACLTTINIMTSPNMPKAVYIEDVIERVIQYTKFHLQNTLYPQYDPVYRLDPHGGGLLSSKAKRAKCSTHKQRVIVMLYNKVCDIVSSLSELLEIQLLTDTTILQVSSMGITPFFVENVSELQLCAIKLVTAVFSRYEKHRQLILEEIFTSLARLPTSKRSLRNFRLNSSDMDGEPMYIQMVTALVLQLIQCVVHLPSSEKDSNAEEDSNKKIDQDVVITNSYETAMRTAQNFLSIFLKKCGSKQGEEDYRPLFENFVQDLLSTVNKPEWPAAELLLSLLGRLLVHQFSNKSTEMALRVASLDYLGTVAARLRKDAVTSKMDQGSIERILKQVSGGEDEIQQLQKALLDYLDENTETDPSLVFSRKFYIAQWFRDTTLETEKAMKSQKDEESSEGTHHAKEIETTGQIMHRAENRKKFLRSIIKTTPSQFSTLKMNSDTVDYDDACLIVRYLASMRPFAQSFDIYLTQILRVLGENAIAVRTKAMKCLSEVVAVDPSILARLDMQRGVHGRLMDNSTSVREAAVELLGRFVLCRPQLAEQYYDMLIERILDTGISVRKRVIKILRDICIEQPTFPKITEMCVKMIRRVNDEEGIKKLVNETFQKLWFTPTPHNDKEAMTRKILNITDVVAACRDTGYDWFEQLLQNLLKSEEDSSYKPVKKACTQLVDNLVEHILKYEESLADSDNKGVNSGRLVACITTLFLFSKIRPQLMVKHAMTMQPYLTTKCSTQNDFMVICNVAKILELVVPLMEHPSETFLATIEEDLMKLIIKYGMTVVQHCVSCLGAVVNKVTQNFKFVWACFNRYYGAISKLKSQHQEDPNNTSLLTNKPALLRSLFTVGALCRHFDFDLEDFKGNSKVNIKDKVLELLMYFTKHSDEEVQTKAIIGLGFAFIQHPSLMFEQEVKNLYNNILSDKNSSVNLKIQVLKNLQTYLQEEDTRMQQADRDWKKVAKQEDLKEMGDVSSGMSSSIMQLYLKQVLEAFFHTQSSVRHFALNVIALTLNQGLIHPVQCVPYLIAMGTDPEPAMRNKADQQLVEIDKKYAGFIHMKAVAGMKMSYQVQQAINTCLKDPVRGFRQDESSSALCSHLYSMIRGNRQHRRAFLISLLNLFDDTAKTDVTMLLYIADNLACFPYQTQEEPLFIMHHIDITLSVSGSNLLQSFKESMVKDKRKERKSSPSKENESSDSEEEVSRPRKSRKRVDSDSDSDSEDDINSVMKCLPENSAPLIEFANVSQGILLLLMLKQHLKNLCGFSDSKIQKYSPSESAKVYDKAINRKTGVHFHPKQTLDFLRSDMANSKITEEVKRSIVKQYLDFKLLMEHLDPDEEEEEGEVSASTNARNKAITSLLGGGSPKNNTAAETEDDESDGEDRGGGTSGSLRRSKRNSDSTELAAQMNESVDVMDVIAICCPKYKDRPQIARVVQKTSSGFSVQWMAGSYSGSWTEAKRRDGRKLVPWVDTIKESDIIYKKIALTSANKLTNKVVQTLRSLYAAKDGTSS"}, "source": "paper PMC10303866", "binders": {"B1": {"name": "wild-type human RAD21, EGFP-tagged, over-expressed in HeLa cells (protein, UniProt O60216 1-631)", "chain": "MFYAHFVLSKRGPLAKIWLAAHWDKKLTKAHVFECNLESSVESIISPKVKMALRTSGHLLLGVVRIYHRKAKYLLADCNEAFIKIKMAFRPGVVDLPEENREAAYNAITLPEEFHDFDQPLPDLDDIDVAQQFSLNQSRVEEITMREEVGNISILQENDFGDFGMDDREIMREGSAFEDDDMLVSTTTSNLLLESEQSTSNLNEKINHLEYEDQYKDDNFGEGNDGGILDDKLISNNDGGIFDDPPALSEAGVMLPEQPAHDDMDEDDNVSMGGPDSPDSVDPVEPMPTMTDQTTLVPNEEEAFALEPIDITVKETKAKRKRKLIVDSVKELDSKTIRAQLSDYSDIVTTLDLAPPTKKLMMWKETGGVEKLFSLPAQPLWNNRLLKLFTRCLTPLVPEDLRKRRKGGEADNLDEFLKEFENPEVPREDQQQQHQQRDVIDEPIIEEPSRLQESVMEASRTNIDESAMPPPPPQGVKRKAGQIDPEPVMPPQQVEQMEIPPVELPPEEPPNICQLIPELELLPEKEKEKEKEKEDDEEEEDEDASGGDQDQEERRWNKRTQQMLHGLQRALAKTGAESISLLELCRNTNRKQAAAKFYSFLVLKKQQAIELTQEEPYSDIIATPGPRFHII"}}, "key": {"[1]": {"target": "T1, WAPL, cohesin release factor (human (endogenous in HeLa)) (UniProt Q7Z5K2)", "T1 sequence": "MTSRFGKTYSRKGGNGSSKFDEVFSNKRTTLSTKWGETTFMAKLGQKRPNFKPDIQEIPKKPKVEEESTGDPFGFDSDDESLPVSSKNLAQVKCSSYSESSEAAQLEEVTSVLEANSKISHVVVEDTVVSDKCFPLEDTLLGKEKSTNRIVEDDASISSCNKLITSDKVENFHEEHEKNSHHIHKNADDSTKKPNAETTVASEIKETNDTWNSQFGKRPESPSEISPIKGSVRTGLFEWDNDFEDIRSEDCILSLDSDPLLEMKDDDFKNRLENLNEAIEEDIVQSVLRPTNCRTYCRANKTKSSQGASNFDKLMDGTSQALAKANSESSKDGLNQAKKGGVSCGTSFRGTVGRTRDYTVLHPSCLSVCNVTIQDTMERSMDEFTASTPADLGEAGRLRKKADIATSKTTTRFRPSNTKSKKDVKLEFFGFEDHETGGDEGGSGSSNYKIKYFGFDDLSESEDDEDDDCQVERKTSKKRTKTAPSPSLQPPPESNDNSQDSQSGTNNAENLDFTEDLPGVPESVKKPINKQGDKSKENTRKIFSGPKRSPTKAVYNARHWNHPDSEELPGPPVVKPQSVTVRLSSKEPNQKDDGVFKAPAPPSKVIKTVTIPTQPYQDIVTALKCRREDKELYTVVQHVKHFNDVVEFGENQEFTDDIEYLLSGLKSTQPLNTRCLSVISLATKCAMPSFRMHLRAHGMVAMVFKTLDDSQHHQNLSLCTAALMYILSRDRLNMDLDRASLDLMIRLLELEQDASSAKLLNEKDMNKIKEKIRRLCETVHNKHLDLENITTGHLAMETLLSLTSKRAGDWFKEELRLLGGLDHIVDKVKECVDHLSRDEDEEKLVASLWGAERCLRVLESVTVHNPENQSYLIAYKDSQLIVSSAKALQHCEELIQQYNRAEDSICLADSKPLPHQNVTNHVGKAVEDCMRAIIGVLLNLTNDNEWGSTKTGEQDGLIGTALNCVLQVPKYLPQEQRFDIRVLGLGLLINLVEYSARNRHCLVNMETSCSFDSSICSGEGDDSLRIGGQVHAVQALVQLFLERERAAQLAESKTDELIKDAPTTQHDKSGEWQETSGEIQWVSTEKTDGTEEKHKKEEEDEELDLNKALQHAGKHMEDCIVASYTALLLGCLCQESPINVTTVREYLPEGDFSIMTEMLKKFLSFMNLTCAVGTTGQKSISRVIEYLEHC", "test": "co-IP; Additional file 1: Fig. S2C; HeLa cells transfected with wild-type or LIS-poly-Ala RAD21; methods and bait of this panel not shown"}, "[2]": {"target": "NIPBL, cohesin loader subunit (human (endogenous in HeLa)) (UniProt Q6KC79)", "test": "co-IP; Additional file 1: Fig. S2C; HeLa cells transfected with wild-type or LIS-poly-Ala RAD21; methods and bait of this panel not shown"}}, "note": "These are yes or no findings as the source states them, for the method shown. In cells and extracts the contact can be indirect. Some entries that bind do so weakly or less than the wild type. Sequences can lack the tags named with a protein.", "data": [{"binder": "B1", "values": [{"measurement": "binding", "setting": "[1]", "value": "binds"}, {"measurement": "binding", "setting": "[2]", "value": "binds"}]}]}
